The source of these data is US9459246B2, “Induced intercellular communication” (Nodality, Inc., priority 2009, dated 2016).

In the experiment the test system is peripheral blood mononuclear cells (PBMC). Briefly: SCNP assay of SAg-modulated PBMC signaling over time, with or without cytokine pathway inhibitors (Examples 10, 11, 13). It is filed as cell-based, human.

In the case of `C[C@@H]1CCN(C(=O)CC#N)C[C@@H]1N(C)c1ncnc2[nH]ccc12` [Tofacitinib], the “JAK selectivity in the SCNP assay” value was “pan-JAK promiscuity”. The IC50 (commonly the concentration that gives 50% inhibition) (Homo sapiens, PBMC, read-out: IC50 for p-STAT5 inhibition) was < 500 nM.
